Three substances from paper PMC5148605, “Prefabrication of a ribosomal protein subcomplex essential for eukaryotic ribosome formation” (eLife, 2016) can be followed below.

Amino acid sequences for entries named in this document (tags omitted). A change or cut given only in a name is not applied to a line headed by its entry.
UniProt P39938: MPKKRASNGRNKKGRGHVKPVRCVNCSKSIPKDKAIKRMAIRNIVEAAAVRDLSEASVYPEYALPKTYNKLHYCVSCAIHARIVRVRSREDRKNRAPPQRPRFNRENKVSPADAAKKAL

The target of one experiment is T1, GST-Fap7 (S. cerevisiae) (UniProt Q12055).
T1 sequence: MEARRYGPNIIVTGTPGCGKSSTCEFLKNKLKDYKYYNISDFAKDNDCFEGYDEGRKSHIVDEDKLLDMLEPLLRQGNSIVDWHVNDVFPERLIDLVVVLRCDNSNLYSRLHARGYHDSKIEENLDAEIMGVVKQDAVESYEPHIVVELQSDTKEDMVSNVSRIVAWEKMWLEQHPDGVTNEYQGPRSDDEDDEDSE
Nature of the experiment: pull-down; GST-tagged Fap7 and uS11 baits immobilised on Glutathione Sepharose in binding buffer (20 mM Hepes pH 7.5, 250 mM NaCl, 5 mM MgCl2, 0.2% Tween-20), incubated with E. coli lysate containing recombinant eS26FLAG or Tsr2:eS26; washed thrice; SDS-PAGE, Coomassie and Western; only the target purified.

Experiment [1] has as its target T2, Enp1-TAP (S. cerevisiae) (UniProt P38333).
T2 sequence: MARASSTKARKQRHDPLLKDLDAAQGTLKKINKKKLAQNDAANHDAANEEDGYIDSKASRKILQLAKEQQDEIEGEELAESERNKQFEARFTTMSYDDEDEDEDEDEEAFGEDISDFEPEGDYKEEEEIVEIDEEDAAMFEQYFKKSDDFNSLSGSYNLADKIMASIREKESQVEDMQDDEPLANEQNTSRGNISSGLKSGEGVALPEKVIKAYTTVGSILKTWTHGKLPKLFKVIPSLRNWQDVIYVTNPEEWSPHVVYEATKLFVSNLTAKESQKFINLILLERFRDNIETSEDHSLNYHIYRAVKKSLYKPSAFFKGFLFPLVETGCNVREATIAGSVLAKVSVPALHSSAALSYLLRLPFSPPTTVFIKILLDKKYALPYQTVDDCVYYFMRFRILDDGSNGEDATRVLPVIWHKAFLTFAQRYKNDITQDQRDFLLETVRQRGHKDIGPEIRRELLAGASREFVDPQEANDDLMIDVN
Nature of the experiment: tandem affinity purification (TAP) with Western analysis; Enp1-TAP isolated from Fap7-depleted cells; calmodulin eluates.

The target in experiment [2] is T2, Enp1-TAP (S. cerevisiae). Nature of the experiment: tandem affinity purification (TAP) with Western analysis; Enp1-TAP isolated from Tsr2-depleted cells; calmodulin eluates.
Experiment [3] concerns the target T2, Enp1-TAP (S. cerevisiae). Nature of the experiment: tandem affinity purification (TAP) with Western analysis; TAP-tagged baits isolated from yeast cells (wild type; also Fap7- or Tsr2-depleted cells and Tsr2-depleted cells co-overexpressing FAP7 and uS11); calmodulin eluates; pre-ribosomal particles.
In experiment [4] the target is T3, GST-Pse1 (S. cerevisiae) (UniProt P32337).
T3 sequence: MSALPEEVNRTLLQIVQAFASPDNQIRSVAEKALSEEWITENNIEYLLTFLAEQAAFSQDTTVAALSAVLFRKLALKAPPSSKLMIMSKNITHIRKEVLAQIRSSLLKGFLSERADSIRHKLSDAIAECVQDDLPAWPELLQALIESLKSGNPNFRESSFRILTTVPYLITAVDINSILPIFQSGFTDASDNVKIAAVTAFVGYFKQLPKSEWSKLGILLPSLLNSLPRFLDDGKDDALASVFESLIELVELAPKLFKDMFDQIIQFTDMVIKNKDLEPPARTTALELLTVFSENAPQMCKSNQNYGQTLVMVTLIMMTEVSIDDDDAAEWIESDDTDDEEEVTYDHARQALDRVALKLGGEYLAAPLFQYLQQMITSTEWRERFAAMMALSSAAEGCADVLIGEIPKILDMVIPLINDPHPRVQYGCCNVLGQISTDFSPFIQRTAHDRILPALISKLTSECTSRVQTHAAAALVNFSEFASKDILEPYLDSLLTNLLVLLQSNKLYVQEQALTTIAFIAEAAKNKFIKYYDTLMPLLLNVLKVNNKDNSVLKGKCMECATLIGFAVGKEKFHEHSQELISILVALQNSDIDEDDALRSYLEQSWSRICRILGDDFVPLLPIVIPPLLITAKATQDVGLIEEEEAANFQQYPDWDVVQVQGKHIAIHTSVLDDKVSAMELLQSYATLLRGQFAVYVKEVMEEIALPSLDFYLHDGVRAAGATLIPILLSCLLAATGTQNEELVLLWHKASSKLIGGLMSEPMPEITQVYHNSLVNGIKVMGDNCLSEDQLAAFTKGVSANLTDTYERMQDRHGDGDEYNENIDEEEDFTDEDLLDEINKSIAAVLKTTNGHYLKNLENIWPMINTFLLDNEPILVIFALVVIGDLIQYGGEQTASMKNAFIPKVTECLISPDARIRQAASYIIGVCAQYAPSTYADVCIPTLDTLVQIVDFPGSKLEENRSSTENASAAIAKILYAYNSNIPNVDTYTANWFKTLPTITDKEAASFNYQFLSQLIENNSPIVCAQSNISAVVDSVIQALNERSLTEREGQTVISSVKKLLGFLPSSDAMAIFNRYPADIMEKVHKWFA
The experiment can be described thus: pull-down; GST-Pse1 immobilised on Glutathione Sepharose, incubated with buffer or eS26 alone; washed; Coomassie and Western.

Experiment [5] deals with T3, GST-Pse1 (S. cerevisiae). The experiment can be described thus: pull-down; pre-immobilised GST-Pse1:eS26FLAG complexes incubated with buffer alone or 1.5 µM His6-Fap7:uS11 and/or 1.5 µM RanGTP at 4°C; samples at 0 and 10 min (Fap7:uS11 for 1 hr in Figure 7A); Coomassie and Western; both purified.

Results are given in words; binding and its absence hold for the method and conditions named. For some of these results: Binding can be weak; no strength is given. For some of these results: Tags and fused reporters may be left off the sequences shown. For some of these results: Binding seen in cells or lysates may run through a third protein.

With Tsr2:eS26 complex (S. cerevisiae), the binding result in the experiment with GST-Fap7 (S. cerevisiae) is “no binding”.
As to eS26 (endogenous) (from UniProt P39938), the binding result with Enp1-TAP (S. cerevisiae) [1] is “binds weakly”; with Enp1-TAP (S. cerevisiae) [2] it was “binds weakly”; with Enp1-TAP (S. cerevisiae) [3], “binds”.
Consider eS26FLAG (from UniProt P39938), for which the binding result with GST-Pse1 (S. cerevisiae) [4] is reported as “binds”; with GST-Pse1 (S. cerevisiae) [5], “binds”; with GST-Fap7 (S. cerevisiae), “no binding”.
